These are yes or no findings as the source states them, for the method shown. In cells and extracts the contact can be indirect.

Chains of the proteins cited; added tags and fusions are not shown.
UniProt Q13568: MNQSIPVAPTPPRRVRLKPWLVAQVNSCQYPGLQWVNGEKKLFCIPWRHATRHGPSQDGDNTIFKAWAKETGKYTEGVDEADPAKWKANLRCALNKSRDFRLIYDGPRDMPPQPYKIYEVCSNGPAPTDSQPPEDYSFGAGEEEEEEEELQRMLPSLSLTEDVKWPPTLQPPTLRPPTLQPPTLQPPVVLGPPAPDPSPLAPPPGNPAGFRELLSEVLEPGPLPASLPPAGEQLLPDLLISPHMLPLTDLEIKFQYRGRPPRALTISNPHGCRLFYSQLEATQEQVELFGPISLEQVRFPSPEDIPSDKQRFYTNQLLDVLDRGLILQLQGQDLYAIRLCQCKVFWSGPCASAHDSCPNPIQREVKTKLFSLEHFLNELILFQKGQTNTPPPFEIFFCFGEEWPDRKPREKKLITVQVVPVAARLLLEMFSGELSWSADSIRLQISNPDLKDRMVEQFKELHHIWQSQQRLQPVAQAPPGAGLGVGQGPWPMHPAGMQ
UniProt O00506: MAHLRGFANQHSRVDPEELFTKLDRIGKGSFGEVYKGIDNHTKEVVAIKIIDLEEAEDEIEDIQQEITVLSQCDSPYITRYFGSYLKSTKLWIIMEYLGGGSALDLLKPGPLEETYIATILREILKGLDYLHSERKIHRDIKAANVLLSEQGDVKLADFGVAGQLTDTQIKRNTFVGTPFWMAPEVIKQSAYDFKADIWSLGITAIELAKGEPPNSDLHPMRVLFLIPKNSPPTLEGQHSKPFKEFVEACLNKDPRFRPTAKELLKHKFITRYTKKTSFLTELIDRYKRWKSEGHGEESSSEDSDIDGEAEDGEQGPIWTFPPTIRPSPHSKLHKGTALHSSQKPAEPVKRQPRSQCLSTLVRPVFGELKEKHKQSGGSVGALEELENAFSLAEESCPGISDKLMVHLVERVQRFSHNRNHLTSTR

This assay concerns the target interferon regulatory factor 5 (IRF5) (human (endogenous in THP-1 and Ramos)) (UniProt Q13568). Put plainly: co-IP.

Take “serine/threonine protein kinase 25 (STK25) (from UniProt O00506 1-426) (enzyme)”: the binding entry was “no binding”.

Source of the values: paper doi:10.1101/2023.09.26.559637.
